# Test results: PubChem BioAssay AID1259354 (Paczesny and Yang Labs, IUPUI and University of Michigan, 2018)
# The chains behind the UniProt entries cited, without tags or fusion partners. Where a name states a change or a piece, a line headed by the entry shows the natural chain unless it says otherwise.
# UniProt Q01638: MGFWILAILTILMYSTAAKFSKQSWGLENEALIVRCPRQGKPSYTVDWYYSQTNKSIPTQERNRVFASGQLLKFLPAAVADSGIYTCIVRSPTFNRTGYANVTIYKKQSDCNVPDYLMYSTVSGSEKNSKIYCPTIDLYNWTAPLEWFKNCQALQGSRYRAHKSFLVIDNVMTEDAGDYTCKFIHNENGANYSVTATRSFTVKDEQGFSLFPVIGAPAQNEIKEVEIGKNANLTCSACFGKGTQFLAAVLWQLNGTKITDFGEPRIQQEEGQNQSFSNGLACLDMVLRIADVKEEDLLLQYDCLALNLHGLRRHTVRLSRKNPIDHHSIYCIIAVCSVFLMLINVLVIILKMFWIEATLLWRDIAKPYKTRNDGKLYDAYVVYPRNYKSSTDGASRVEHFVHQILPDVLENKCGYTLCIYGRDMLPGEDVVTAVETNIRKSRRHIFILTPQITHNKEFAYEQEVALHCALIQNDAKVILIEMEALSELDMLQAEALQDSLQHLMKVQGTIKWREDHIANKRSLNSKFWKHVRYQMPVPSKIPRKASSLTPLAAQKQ
# About 1,800 (2.3%) of roughly 78,000 compounds were called active. The shares of active, inactive and inconclusive entries below differ from those in the screen. Rule as the data show it: active = inhibition above about 30%; inconclusive = mostly about 10% to 28%; inactive = weaker than that.
# Molecular target: Interleukin-1 receptor-like 1 (Homo sapiens) (UniProt Q01638)
# Experiment: blocks human ST2 binding to IL-33, primary screen, biochemical, AlphaLISA (AID 1259354)
# Details: AlphaLISA ST2-Fc/biotin-IL-33 interaction, 1 h; at 17 µM, hits give high values
row,SMILES,inhibition
1,N#C/C(=C\c1cccc([N+](=O)[O-])c1)c1nn(-c2ccccc2)c(N)c1C#N,inconclusive: 13%
2,COc1ccccc1Nc1cc(C(F)(F)F)nc2c(OC)ccc(OC)c12,active: 39%
3,O=C(C1CC1)N1CCc2cc(Br)cc(S(=O)(=O)NCc3ccc(Cl)cc3)c21,inconclusive: 14%
4,CC(NC(=O)c1cnn2c1CCCC2)C1=CCCCC1 (centres undefined),inconclusive: 10%
5,COc1ccc(-c2noc([C@@H]3C[C@@H](O)CN3Cc3ccncc3)n2)cc1,active: 36%
6,Cc1ccc(S(=O)(=O)C2(C(=O)NC3CCCCCC3)CC2)cc1,inactive
7,CN(Cc1ccccc1)S(=O)(=O)c1ccc(C(=O)Nc2nnc(-c3cccs3)o2)cc1,inactive
8,CCC(=O)c1ccc2c(c1)N(CCCN(C)C)c1ccccc1S2,inconclusive: 10%
9,O=C(Nc1ccc(Cl)cc1)c1ccc(Br)o1,inactive
10,O=c1oc2ccccc2cc1-c1cn2c(n1)sc1ccccc12,inconclusive: 23%
11,Cc1ccc(NC(=O)CCC2CCCC2)nc1,inactive
12,CCCSc1ncc(CN2CCCC2c2ccccn2)cn1 (centres undefined),inconclusive: 17%
13,CCn1c(C2CCCN(C3CCN(c4ccccc4)CC3)C2)nn(C)c1=O (centres undefined),inconclusive: 10%
14,O=C(O)C[C@@H]1CCNC[C@@H]1Cc1cc(COc2ccccc2)on1,inconclusive: 11%
15,Cc1ccnc(SCCn2c(N3CCCCCC3)nc3c2c(=O)n(C)c(=O)n3C)n1,inconclusive: 21%
16,CCN(CC)S(=O)(=O)c1ccc(OC)c(NC(=O)c2cccs2)c1,inconclusive: 11%
17,CN(Cc1ccccc1)[C@@H]1[C@H](O)[C@H](CO)O[C@@H]1CNC(=O)c1ccccc1,inconclusive: 18%
18,O=C(CSc1nccc2ccccc12)c1ccccc1,inactive
19,CC(C)(CC(=O)O)CC(=O)N[C@H]1CO[C@H]2[C@@H]1OC[C@@H]2Nc1nccc(-c2ccc3c(c2)OCO3)n1,inconclusive: 11%
20,CCN(CCCNC(=O)c1cc(-c2ccncc2)nc2ccccc12)c1ccccc1,inconclusive: 17%
21,CC1(C)CC(Nc2ccc(C(=O)NCCCc3ccccn3)cn2)CCO1 (centres undefined),inactive
22,O=C(Cc1ccsc1)N1CC(=O)N(CC2CCOCC2)CC(OCc2cccnc2)C1 (centres undefined),inconclusive: 10%
23,CC(C)=CC(=O)N1CC[C@@H](c2sccc2C)[C@H](O)C1,inconclusive: 16%
24,CC1=CC(=O)C(C(C)C)=CC1=NS(=O)(=O)c1ccc([N+](=O)[O-])cc1,inconclusive: 20%

row,SMILES,inhibition
1,CC(NS(=O)(=O)c1ccc(Cl)cc1)C(c1cccs1)N1CCN(C)CC1 (centres undefined),inconclusive: 19%
2,CCOC(=O)c1c(-c2ccccc2)oc2ccc(O)c(CN3CCN(C)CC3)c12,inconclusive: 11%
3,N#CC1C(=O)NC(=O)C([n+]2ccccc2)C1c1ccccc1Cl (centres undefined),inconclusive: 17%
4,CCN1CCN(Cc2c(C)[nH]c3c(C)cc(C)cc3c2=O)CC1,inactive
5,O=C(NCCc1cccc(C(F)(F)F)c1)c1cn(CCc2ccccc2)nn1,inactive
6,CCCN1CCN(C(=O)c2cn(C)c(=O)c3cc(OC)c(OC)cc23)CC1,inconclusive: 19%
7,CCc1nc2nc(C)[nH]n2c(=O)c1NC(=O)Nc1cccc(C)c1,inactive
8,Cn1c(C(=O)NCc2ccc(F)cc2)cc2c(=O)n3ccccc3nc21,inactive
9,COc1cccc2cc(C(=O)Nc3ccccc3)c(=O)oc12,inconclusive: 20%
10,CCCCc1nc(N2CCCC2)c(C#N)c2c1COC(C)(C)C2,inactive
11,CSc1ccc(-c2nc(CSCC(=O)NC3CC3)c(C)o2)cc1,inconclusive: 19%
12,CCCn1c(=N)n(CCOc2ccccc2)c2ccccc21,inconclusive: 14%
13,CCOc1nnc(-c2ccc(C)cc2)c2ccccc12,inactive
14,CC(C)C[C@H]1CN(C(=O)c2ccc(=O)n(C)c2)CC[C@@]1(C)O,inconclusive: 10%
15,CC1(C)CC(=O)C2=C(C1)Nc1ccccc1N(C(=O)Cc1ccc(Cl)cc1)C2c1cccnc1 (centres undefined),active: 40%
16,CCN(CC)c1ccc(N=Cc2ccc(N(CC)CC)cc2O)cc1,active: 60%
17,CCCCNC(=O)C1CCCN(S(=O)(=O)c2cnc[nH]2)C1 (centres undefined),inactive
18,CCOCCOC(=O)C1=C(C)NC2=C(C(=O)C(C(=O)OC)C(C)C2)C1c1ccc(N(C)C)cc1 (centres undefined),inconclusive: 11%
19,CC(=O)Nc1nc2ccc(OC(F)(F)F)cc2s1,inactive
20,CN(C)c1ccc(C2CC(c3ccc(Br)cc3)=NN2C(=O)CCCC(=O)O)cc1 (centres undefined),inconclusive: 26%
21,CCc1ccc(OCC(=O)Nc2ccc(OC)cc2)cc1,inactive
22,CC1CCc2nc(NC(=O)c3cc(=O)c4ccccc4o3)sc2C1 (centres undefined),inconclusive: 18%
23,CCc1csc(CNC(=O)c2ccc(N(C)Cc3nonc3C)nc2)n1,inconclusive: 14%
24,CCN(CC)CCNC(=O)CN1C(=O)/C(=C\c2ccc(C(F)(F)F)cc2)Sc2ccccc21,active: 37%

row,SMILES,inhibition
1,Cc1ccc(S(=O)(=O)Cc2ccc(C(=O)NC(C)c3ccc4c(c3)OCCO4)o2)cc1 (centres undefined),inactive
2,[O-][N+]1=C2CCC/C(=N\O)C2(O)C2CCCCC21N1CCOCC1 (centres undefined),inconclusive: 17%
3,N/C(=C\C(=O)c1cccs1)C(Cl)(Cl)Cl,inconclusive: 20%
4,O=C(NCC1CCCN(C(=O)c2cncs2)C1)c1cccc2ccccc12 (centres undefined),inactive
5,Cc1cc(N2CCOCC2)nc(N2CCN(S(=O)(=O)c3ccc(Br)cc3)CC2)n1,inconclusive: 11%
6,CC1CCCC(NC(=O)C2c3ccccc3C(=O)N2Cc2ccccc2Cl)C1C (centres undefined),inactive
7,O=C(C[C@@H]1CCNC[C@@H]1Cc1cc(CC2CCCCC2)on1)NC1CCCCC1,inconclusive: 19%
8,COc1ccc(NS(=O)(=O)c2ccc3c(c2)CCN3C(=O)C2CC2)cc1Cl,inactive
9,C=CCOc1cccc(C(=O)N2CCC3(CC2)CC3C(=O)N2CCN(c3ccccc3)CC2)c1 (centres undefined),inconclusive: 16%
10,COc1ccc(C(Nc2ccccn2)c2ccc3ccc(C)nc3c2O)cc1C (centres undefined),active: 31%
11,COc1ccc(NCc2ccc([N+](=O)[O-])s2)cc1OC,active: 45%
12,COc1cccc(OC)c1C(=O)N1CCN=C1SCc1ccccc1F,inactive
13,O=C(Nc1cccc(OCc2cc(=O)n3cc(Cl)ccc3n2)c1)c1ccco1,inactive
14,CC(=O)c1ccc(N2C(=O)C3C4C=CC(CC4)C3C2=O)cc1 (centres undefined),inconclusive: 12%
15,Cc1cccc(NCc2nc3ccccc3n2C)c1,inconclusive: 15%
16,Oc1c(C(Nc2ccccn2)c2ccccc2F)ccc2cccnc12 (centres undefined),inconclusive: 11%
17,COc1ccc(/C=C2\CS/C(=C\c3ccc(OC)cc3)C2=O)cc1,inconclusive: 10%
18,Cc1ccc(Nc2cc(C)nc(N3CCN(S(=O)(=O)c4ccc(F)cc4)CC3)n2)cc1,inconclusive: 21%
19,O=C(NCc1ccccc1)C1CCCN1S(=O)(=O)c1cccc2nsnc12 (centres undefined),inconclusive: 16%
20,O=C(c1ccccc1F)n1cnc2ccccc21,inactive
21,Cc1ccc(CN2CCN(Cc3ccccc3CO)CC2)n1-c1cccnc1,inconclusive: 15%
22,O=C(c1nc(N2CCCC2)nc2c1CCCC2)N1CCN(Cc2ccc3c(c2)OCO3)CC1,active: 32%
23,CCn1c(C2CCN(C(=O)CCCn3cncn3)CC2)nn(C)c1=O,inactive
24,Cc1cc(S(=O)(=O)Nc2cc(Br)c3oc4c(c3c2)C(=O)CCC4)ccc1Cl,inconclusive: 26%

# 17 compounds already listed, sorted by molar mass, low to high.
row,SMILES,inhibition
20,O=C(c1ccccc1F)n1cnc2ccccc21,inactive
15,Cc1cccc(NCc2nc3ccccc3n2C)c1,inconclusive: 15%
3,N/C(=C\C(=O)c1cccs1)C(Cl)(Cl)Cl,inconclusive: 20%
11,COc1ccc(NCc2ccc([N+](=O)[O-])s2)cc1OC,active: 45%
2,[O-][N+]1=C2CCC/C(=N\O)C2(O)C2CCCCC21N1CCOCC1 (centres undefined),inconclusive: 17%
17,COc1ccc(/C=C2\CS/C(=C\c3ccc(OC)cc3)C2=O)cc1,inconclusive: 10%
23,CCn1c(C2CCN(C(=O)CCCn3cncn3)CC2)nn(C)c1=O,inactive
12,COc1cccc(OC)c1C(=O)N1CCN=C1SCc1ccccc1F,inactive
4,O=C(NCC1CCCN(C(=O)c2cncs2)C1)c1cccc2ccccc12 (centres undefined),inactive
10,COc1ccc(C(Nc2ccccn2)c2ccc3ccc(C)nc3c2O)cc1C (centres undefined),active: 31%
13,O=C(Nc1cccc(OCc2cc(=O)n3cc(Cl)ccc3n2)c1)c1ccco1,inactive
7,O=C(C[C@@H]1CCNC[C@@H]1Cc1cc(CC2CCCCC2)on1)NC1CCCCC1,inconclusive: 19%
6,CC1CCCC(NC(=O)C2c3ccccc3C(=O)N2Cc2ccccc2Cl)C1C (centres undefined),inactive
18,Cc1ccc(Nc2cc(C)nc(N3CCN(S(=O)(=O)c4ccc(F)cc4)CC3)n2)cc1,inconclusive: 21%
9,C=CCOc1cccc(C(=O)N2CCC3(CC2)CC3C(=O)N2CCN(c3ccccc3)CC2)c1 (centres undefined),inconclusive: 16%
24,Cc1cc(S(=O)(=O)Nc2cc(Br)c3oc4c(c3c2)C(=O)CCC4)ccc1Cl,inconclusive: 26%
5,Cc1cc(N2CCOCC2)nc(N2CCN(S(=O)(=O)c3ccc(Br)cc3)CC2)n1,inconclusive: 11%

# Continued:

row,SMILES,inhibition
1,CCOC(=O)N1CCN(C2CCc3c(c(C(=O)N4CCCCCC4)nn3C)C2)CC1 (centres undefined),inactive
2,N=c1c(C(N)=O)cc(Cl)c(C(=O)O)n1Cc1ccccc1,inactive
3,CC(Oc1cccc(-c2cccc3cnccc23)c1)C(N)=O (centres undefined),inactive
4,CN1[C@@H]2CC(OC(=O)[C@H](CO)c3ccccc3)C[C@H]1[C@@H]1O[C@@H]12 (some centres undefined),inconclusive: 12%
5,CN(C)/C=C1/C(=O)N(c2nc3ccccc3s2)N=C1c1ccccc1,inconclusive: 18%
6,CC1=C(C(=O)Nc2ccc(C)cc2)C(c2ccc(Br)cc2)n2nnnc2N1 (centres undefined),inconclusive: 13%
7,Cc1cccc(C(=O)Nc2cccc(C(=O)Nc3nccs3)c2)c1,inconclusive: 15%
8,CCC1(C)CC(C(CC(=O)O)c2ccc(C)cc2)CCO1 (centres undefined),inconclusive: 13%
9,CC(=O)c1ccc(N(C)C)cc1,inconclusive: 15%
10,O=[N+]([O-])c1ccc(Cl)c(S(=O)(=O)n2nnc3ccccc32)c1,inconclusive: 10%
11,Cn1c(=O)c2c(SCC(=O)N3CCc4ccccc43)nc(-c3cccs3)nc2n(C)c1=O,inconclusive: 25%
12,CCc1ccc(CN(C)C(=O)c2nc3c(C)cccn3c2F)nc1,inconclusive: 10%
13,CCN(CC)S(=O)(=O)c1ccc(OC)c(NC(=O)c2ccc(Cl)cc2[N+](=O)[O-])c1,inconclusive: 16%
14,Cc1ccc(Nc2cc(C)nc(N3CCN(S(=O)(=O)c4ccc(C)cc4)CC3)n2)cc1,inactive
15,CCCCN1CC(COc2ccccc2)OC1=O (centres undefined),inconclusive: 14%
16,Cc1cccc(OCCCn2cc(/C=C3/C(=N)N4C=CSC4=NC3=O)c3ccccc32)c1C,inconclusive: 11%
17,COc1ccc(-c2cc(C(=O)Nc3sc4c(c3C#N)CCCC4)no2)cc1,inactive
18,COc1ccc2cc(C(N)=O)c(=Nc3ccccc3C)oc2c1,inconclusive: 12%
19,Cc1ccc(N=Cc2nc(-c3ccc(Cl)cc3)oc2O)cc1Cl,inconclusive: 13%
20,Cc1ccccc1OCc1nc(C#N)c(N2CCCCC2)o1,active: 68%
21,CC(=O)NC[C@H]1O[C@@H](CO)[C@@H](O)[C@H]1N1CCC(C)CC1,inconclusive: 14%
22,CCSCCOC(=O)C1=C(C)NC2=C(C(=O)C(C(=O)OC)C(C)C2)C1c1ccc(O)cc1 (centres undefined),inconclusive: 12%
